Experimental data reported in patent US4863899A, “Biologically active polypeptides” (priority 1987, dated 1989).
At least one peptide structure holds a part that was inferred or is arguable (an end, a ring closure or a residue). No end group written: not given here.

Test system: antiserum against peptide III
Assay: Radioimmunoassay, inhibition of precipitation of 125I-peptide III
Type: binding, rabbit
Method: Rabbits were immunized by subcutaneous injection of 1 mg of conjugate injected subcutaneously at four separate sites. Two booster injections were administered at bi-weekly intervals following the initial injection. The serum used in this study was collected eighty days after the initial injection. An immunoglobulin fraction of this serum was prepared by ammonium sulfate precipitation. The product of antibodies specific for immunizing peptide was monitored with a solid phase enzyme-linked immunoabsorbent assay.
Reactants were mixed in a final volume of 50 microliters of a solution containing: 20 mM sodium phosphate, at pH 7.4; 200 mM NaCl: 40 mM dithiothreitol; 0.1% (w:v) BSA; 0.1% (w:v) NaN3 : ^125 I-peptide III; (10^4 cpm); antiserum at a final dilution of 1/15,000; and other additions, as specified. The reaction was initiated by the addition of antiserum and continued at 23° C. for 90 minutes. […] The immunoadsorbant was removed by sedimentation through a cushion of 10% (w:v) sucrose and the amount of bound ^125 I-peptide III was determined using a gamma counter. […] The amount of bound peptide III was corrected for non-specific binding measured in the absence of antibody (less than 5% of the total) and expressed as a percentage of maximal binding. Concentrations of competitors were expressed as the amount of peptide III required to give an equivalent inhibition of precipitation.

VGVRCEHADLLA [Peptide IV]
inhibition of precipitation of 125I-peptide III, in words (compared with peptide III): only slightly less effective | Relative Inhibitory Activity (half-maximal inhibitory concentration relative to peptide III, standard RIA, > = highest concentration tested): 3.5
